From patent US20070112053A1, “Pharmaceutical compositions and methods using temozolomide and a protein kinase inhibitor” (priority 2005, published 2007)
For part of these data: At least one compound was matched to its structure with a doubt left. Some results were stated once for a whole list of compounds, not compound by compound.

Assays:
[1] = test system: U87MG (glioblastoma) xenograft tumors; assay: U87MG glioblastoma xenograft tumor growth in nude mice; format: in vivo; conditions: Dosing Regimens 1-10, FIG. 1
Protocol: The following human glioblastoma xenograft model may be employed to ascertain the efficacy of the formulations and methods described herein. Human glioblastoma cell U87MG are inoculated subcutaneously into female nude mice (age 4-6 wks). Xenograft tumor growth is followed by measuring the tumor size using a caliper. Once tumor size reaches about 100 mm3 (average), mice carrying the xenograft tumors are grouped and treated with different doses of the combination of TMZ and a PKC inhibitor (e.g., enzastaurin). Likewise, human glioblastoma cell U373 may be used to establish a xenograft model.
The combination of TMZ and a PKC inhibitor (e.g., enzastaurin) for treating a cell proliferative disorder was examined using a glioblastoma xenograft model. In particular, the glioblastoma model U87MG was used to evaluate the efficacy of PKC inhibitor enzataurin as a single agent compared to TMZ (Temodar®), a chemotherapeutic drug clinically approved for treating brain tumor, as a single agent. […]
In brief, nude mice were inoculated with U87-MG glioblastoma cells and the resultant tumors treated with control, or various concentrations of TMZ, enzastaurin, or a combination of both TMZ and enzastaurin. […] Tumor size and body weight was measured two to three times per week. […]

[2] = Body weight change of nude mice with U87MG xenograft tumors; format: in vivo; conditions: Day 7 to Day 17 post inoculation, Dosing Regimens 1-10

SMILES: Cn1nnc2c(C(N)=O)ncn2c1=O [TMZ, 3,4-dihydro-3-methyl-4-oxoimidazo[5,1-d]-as-tetazine-8-carboxamide]
- efficacy at decreasing tumor growth (mean tumor growth curves) compared with enzastaurin alone [1]: more effective than enzastaurin alone
- body weight loss [2]: no more than 5%

SMILES: Cn1cc(C2=C(c3cn(C4CCN(Cc5ccccn5)CC4)c4ccccc34)C(=O)NC2=O)c2ccccc21 [enzastaurin]
- body weight loss [2]: no more than 5%
